Assay results from US7407940B2, “Antimicrobial hexapeptides” (Helix BioMedix Inc., priority 2005, dated 2008).
Some entries share one result that the patent states for a list of compounds. Where a SMILES comes first, the peptide text is derived from it. The star is where a group is joined. Octanoyl = CCCCCCCC(=O)*

Test system: MRSA (strain SAP0017) and S. aureus (strain ATCC 21923)
Experiment: Resistance emergence, serial passage at half-MIC
Format: cell-based
Conditions: after 30 serial passages at half-MIC; MRSA SAP0017 and S. aureus ATCC 21923

## CCCCCCCC(=O)N[C@@H](CCCCN)C(=O)N[C@@H](Cc1ccccc1)C(=O)N[C@@H](CCCCN)C(=O)N[C@@H](Cc1c[nH]c2ccccc12)C(=O)N1CCC[C@H]1C(=O)N[C@@H](Cc1c[nH]c2ccccc12)C(N)=O [SEQ ID NO: 55, OCT-KFKWPW-NH2] (Octanoyl-KFKWPW-NH2)
  MIC change from starting MIC: ≤ 2 dilutions
